Results taken from the supplement of paper PMC6078165.
± gives the standard deviation of the averaged measurements. Values are relative to the signal before dosing, not to a vehicle control; the signal also falls without drug.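 Fibroblast labels name human fibroblasts: mostly primary ones from tissues such as uterus (C12385, HUF), lung (H6013), bone (Hs27A), adrenal (HADF) and skin (WS1), plus mammary HMF and breast cancer-associated Hs343T. The cancer cells are basal-like or mesenchymal-like triple-negative breast cancer lines. The paper calls a changed response a hit when it shifts by more than 3x the replicate standard deviation. The tissue of the other fibroblasts is not given here.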

System: BT20
Experiment: relative JC-1 red fluorescence (viability) vs pre-drug, coculture with fibroblast (fraction); higher = more viable cancer cells
Experimental: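 JC-1 labelled TNBC cells cocultured 1:1 (1,500 cells each) with CellTrace Violet stained primary or stromal fibroblasts in 384-well plates in FluoroBrite medium, treated with one of 42 anticancer drugs at 0.1, 1, 10 or 100 uM. JC-1 red fluorescence (mitochondrial integrity in cancer cells only) was read by plate reader every 8 h for 72 h. Values are normalised to each well's pre-drug value. The stock of one drug was tenfold lower, so its dose labels may be too high.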

Nc1ccn([C@@H]2O[C@H](CO)[C@@H](O)C2(F)F)c(=O)n1 [Gemcitabine]
relative JC-1 red fluorescence
Details | 8 h | 16 h | 24 h | 32 h | 40 h | 48 h | 56 h | 64 h | 72 h
0.1 µM, coculture fibroblast: C12385 | 0.916 ± 0.013 | 0.855 ± 0.024 | 0.765 ± 0.025 | 0.711 ± 0.019 | 0.652 ± 0.022 | 0.615 ± 0.023 | 0.585 ± 0.023 | 0.557 ± 0.014 | 0.546 ± 0.0096
0.1 µM, coculture fibroblast: H6013 | 0.87 ± 0.14 | 0.921 ± 0.079 | 0.836 ± 0.018 | 0.883 ± 0.14 | 0.85 ± 0.17 | 0.836 ± 0.17 | 0.848 ± 0.18 | 0.843 ± 0.18 | 0.836 ± 0.17
0.1 µM, coculture fibroblast: H6019 | 0.8856 ± 0.0023 | 0.8273 ± 0.0032 | 0.817 ± 0.016 | 0.77 ± 0.033 | 0.73 ± 0.045 | 0.72 ± 0.056 | 0.694 ± 0.046 | 0.675 ± 0.045 | 0.664 ± 0.041
0.1 µM, coculture fibroblast: H6076 | 0.811 ± 0.098 | 0.903 ± 0.015 | 0.823 ± 0.02 | 0.78 ± 0.041 | 0.743 ± 0.035 | 0.719 ± 0.038 | 0.691 ± 0.053 | 0.692 ± 0.054 | 0.662 ± 0.047
0.1 µM, coculture fibroblast: H6231 | 0.785 ± 0.093 | 0.952 ± 0.026 | 0.823 ± 0.0093 | 0.762 ± 0.026 | 0.707 ± 0.03 | 0.657 ± 0.038 | 0.629 ± 0.05 | 0.612 ± 0.052 | 0.575 ± 0.07
0.1 µM, coculture fibroblast: HADF | 0.903 ± 0.11 | 0.8548 ± 0.0053 | 0.7772 ± 0.0061 | 0.731 ± 0.026 | 0.687 ± 0.026 | 0.651 ± 0.033 | 0.639 ± 0.042 | 0.625 ± 0.049 | 0.602 ± 0.052
0.1 µM, coculture fibroblast: HCFa | 0.9508 ± 0.008 | 0.831 ± 0.043 | 0.788 ± 0.058 | 0.715 ± 0.072 | 0.653 ± 0.065 | 0.605 ± 0.064 | 0.574 ± 0.081 | 0.554 ± 0.088 | 0.522 ± 0.089
0.1 µM, coculture fibroblast: HCPF | 0.772 ± 0.081 | 0.929 ± 0.031 | 0.845 ± 0.0088 | 0.7917 ± 0.0046 | 0.75102 ± 0.00057 | 0.703 ± 0.024 | 0.661 ± 0.05 | 0.639 ± 0.048 | 0.622 ± 0.049
0.1 µM, coculture fibroblast: HHSteC | 0.94 ± 0.027 | 0.829 ± 0.015 | 0.8073 ± 0.0031 | 0.729 ± 0.013 | 0.673 ± 0.018 | 0.641 ± 0.021 | 0.615 ± 0.036 | 0.592 ± 0.045 | 0.562 ± 0.046
0.1 µM, coculture fibroblast: HMF | 0.806 ± 0.035 | 0.907 ± 0.012 | 0.821 ± 0.035 | 0.775 ± 0.043 | 0.739 ± 0.064 | 0.698 ± 0.099 | 0.668 ± 0.13 | 0.647 ± 0.14 | 0.625 ± 0.14
0.1 µM, coculture fibroblast: HPFa | 0.833 ± 0.13 | 0.781 ± 0.0084 | 0.734 ± 0.023 | 0.816 ± 0.2 | 0.798 ± 0.23 | 0.773 ± 0.24 | 0.777 ± 0.27 | 0.773 ± 0.28 | 0.733 ± 0.28
0.1 µM, coculture fibroblast: HUF | 0.916 ± 0.049 | 0.801 ± 0.037 | 0.787 ± 0.067 | 0.726 ± 0.11 | 0.66 ± 0.098 | 0.607 ± 0.1 | 0.581 ± 0.093 | 0.555 ± 0.096 | 0.537 ± 0.1
0.1 µM, coculture fibroblast: Hs5 | 0.736 ± 0.029 | 0.915 ± 0.016 | 0.848 ± 0.017 | 0.81 ± 0.016 | 0.765 ± 0.014 | 0.733 ± 0.016 | 0.71 ± 0.0097 | 0.678 ± 0.0021 | 0.663 ± 0.011
0.1 µM, coculture fibroblast: Hs27A | 0.862 ± 0.11 | 0.826 ± 0.099 | 0.795 ± 0.11 | 0.852 ± 0.025 | 0.813 ± 0.028 | 0.784 ± 0.036 | 0.819 ± 0.031 | 0.749 ± 0.051 | 0.803 ± 0.077
0.1 µM, coculture fibroblast: Hs343T | 0.9978 ± 0.0025 | 0.8803 ± 0.0031 | 0.77 ± 0.019 | 0.723 ± 0.035 | 0.675 ± 0.038 | 0.629 ± 0.038 | 0.591 ± 0.058 | 0.583 ± 0.058 | 0.558 ± 0.066
0.1 µM, coculture fibroblast: WS1 | 0.873 ± 0.036 | 0.783 ± 0.06 | 0.727 ± 0.049 | 0.654 ± 0.055 | 0.605 ± 0.05 | 0.576 ± 0.052 | 0.544 ± 0.052 | 0.515 ± 0.051 | 0.51 ± 0.049
1 µM, coculture fibroblast: C12385 | 0.894 ± 0.01 | 0.804 ± 0.024 | 0.774 ± 0.035 | 0.715 ± 0.042 | 0.671 ± 0.041 | 0.647 ± 0.05 | 0.629 ± 0.059 | 0.611 ± 0.062 | 0.596 ± 0.066
1 µM, coculture fibroblast: H6013 | 0.907 ± 0.018 | 0.839 ± 0.011 | 0.823 ± 0.039 | 0.758 ± 0.058 | 0.697 ± 0.078 | 0.687 ± 0.077 | 0.698 ± 0.078 | 0.694 ± 0.082 | 0.694 ± 0.092
1 µM, coculture fibroblast: H6019 | 0.8418 ± 0.007 | 0.737 ± 0.012 | 0.714 ± 0.05 | 0.638 ± 0.056 | 0.574 ± 0.052 | 0.551 ± 0.055 | 0.517 ± 0.058 | 0.484 ± 0.058 | 0.46 ± 0.042
1 µM, coculture fibroblast: H6076 | 0.9884 ± 0.0098 | 0.8645 ± 0.0038 | 0.778 ± 0.024 | 0.738 ± 0.041 | 0.7 ± 0.056 | 0.66 ± 0.07 | 0.641 ± 0.079 | 0.637 ± 0.082 | 0.623 ± 0.082
1 µM, coculture fibroblast: H6231 | 0.902 ± 0.025 | 0.927 ± 0.011 | 0.794 ± 0.0083 | 0.729 ± 0.019 | 0.678 ± 0.019 | 0.6246 ± 0.0053 | 0.5706 ± 0.0027 | 0.541 ± 0.011 | 0.517 ± 0.013
1 µM, coculture fibroblast: HADF | 0.95 ± 0.011 | 0.863 ± 0.073 | 0.877 ± 0.11 | 0.822 ± 0.13 | 0.792 ± 0.14 | 0.759 ± 0.14 | 0.752 ± 0.16 | 0.741 ± 0.14 | 0.724 ± 0.15
1 µM, coculture fibroblast: HCFa | 0.888 ± 0.026 | 0.845 ± 0.057 | 0.811 ± 0.069 | 0.756 ± 0.09 | 0.732 ± 0.11 | 0.712 ± 0.1 | 0.699 ± 0.13 | 0.682 ± 0.13 | 0.655 ± 0.14
1 µM, coculture fibroblast: HCPF | 0.893 ± 0.11 | 0.816 ± 0.043 | 0.777 ± 0.022 | 0.7269 ± 0.006 | 0.692 ± 0.017 | 0.649 ± 0.047 | 0.622 ± 0.056 | 0.605 ± 0.057 | 0.568 ± 0.05
1 µM, coculture fibroblast: HHSteC | 0.917 ± 0.014 | 0.847 ± 0.028 | 0.85 ± 0.046 | 0.78 ± 0.045 | 0.742 ± 0.054 | 0.716 ± 0.05 | 0.7 ± 0.051 | 0.667 ± 0.052 | 0.65 ± 0.059
1 µM, coculture fibroblast: HMF | 0.8351 ± 0.0037 | 0.839 ± 0.018 | 0.749 ± 0.0088 | 0.688 ± 0.022 | 0.642 ± 0.032 | 0.597 ± 0.024 | 0.574 ± 0.035 | 0.555 ± 0.05 | 0.527 ± 0.057
1 µM, coculture fibroblast: HPFa | 0.925 ± 0.052 | 0.872 ± 0.084 | 0.903 ± 0.12 | 0.829 ± 0.16 | 0.828 ± 0.19 | 0.801 ± 0.2 | 0.812 ± 0.21 | 0.799 ± 0.2 | 0.778 ± 0.2
1 µM, coculture fibroblast: HUF | 0.91456 ± 0.00021 | 0.8143 ± 0.0074 | 0.797 ± 0.0036 | 0.72 ± 0.0034 | 0.684 ± 0.0084 | 0.65 ± 0.011 | 0.637 ± 0.031 | 0.624 ± 0.044 | 0.606 ± 0.053
1 µM, coculture fibroblast: Hs5 | 0.866 ± 0.15 | 0.873 ± 0.053 | 0.807 ± 0.032 | 0.755 ± 0.021 | 0.731 ± 0.013 | 0.7 ± 0.0083 | 0.677 ± 0.029 | 0.664 ± 0.038 | 0.646 ± 0.048
1 µM, coculture fibroblast: Hs27A | 0.723 ± 0.02 | 0.948 ± 0.032 | 0.871 ± 0.021 | 0.842 ± 0.034 | 0.807 ± 0.034 | 0.797 ± 0.037 | 0.793 ± 0.042 | 0.793 ± 0.042 | 0.771 ± 0.032
1 µM, coculture fibroblast: Hs343T | 0.932 ± 0.048 | 0.827 ± 0.027 | 0.7503 ± 0.0051 | 0.682 ± 0.018 | 0.627 ± 0.036 | 0.592 ± 0.055 | 0.551 ± 0.062 | 0.544 ± 0.082 | 0.524 ± 0.1
1 µM, coculture fibroblast: WS1 | 0.852 ± 0.0014 | 0.738 ± 0.02 | 0.7116 ± 0.0019 | 0.644 ± 0.018 | 0.6012 ± 0.0039 | 0.574 ± 0.0099 | 0.546 ± 0.014 | 0.528 ± 0.012 | 0.52 ± 0.018
